Earlier results on one compound are cited in paper PMC4674063, “Uncovering the Molecular Mechanism of Actions between Pharmaceuticals and Proteins on the AD Network” (PLoS ONE, 2015).

The conditions of this data set: cited from earlier work.

As to `COc1cc2c(cc1OC)C(=O)C(CC1CCN(Cc3ccccc3)CC1)C2` (stereo not shown) [E20, donepezil], the “crosses the blood-brain barrier (BBB)” value is recorded as “cross the blood-brain barrier”.
